# Data taken from the supplement of paper PMC12823440, “Inhibitors supercharge kinase turnover through native proteolytic circuits” (Nature, 2025).
# Amino acid sequences for entries named in this document (tags omitted). A change or cut given only in a name is not applied to a line headed by its entry.
# UniProt Q06187: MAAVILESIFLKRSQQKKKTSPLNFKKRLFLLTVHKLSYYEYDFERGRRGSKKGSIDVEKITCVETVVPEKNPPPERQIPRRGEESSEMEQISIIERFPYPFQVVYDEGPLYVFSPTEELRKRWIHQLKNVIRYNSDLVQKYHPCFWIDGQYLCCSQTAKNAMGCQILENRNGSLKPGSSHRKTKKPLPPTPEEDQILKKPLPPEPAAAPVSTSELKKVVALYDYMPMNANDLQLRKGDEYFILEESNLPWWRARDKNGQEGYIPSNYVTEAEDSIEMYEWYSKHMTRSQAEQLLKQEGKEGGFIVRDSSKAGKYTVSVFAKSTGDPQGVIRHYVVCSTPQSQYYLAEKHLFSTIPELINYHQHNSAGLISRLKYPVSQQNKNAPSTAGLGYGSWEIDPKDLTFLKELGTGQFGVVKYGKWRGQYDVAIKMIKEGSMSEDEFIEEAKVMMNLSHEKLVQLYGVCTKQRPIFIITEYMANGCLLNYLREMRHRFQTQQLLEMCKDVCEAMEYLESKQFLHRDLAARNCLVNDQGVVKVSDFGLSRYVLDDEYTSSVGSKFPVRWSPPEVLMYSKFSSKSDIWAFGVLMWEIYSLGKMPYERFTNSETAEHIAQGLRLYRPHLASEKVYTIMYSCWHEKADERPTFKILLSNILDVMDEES
# UniProt Q9UQM7, whole entry: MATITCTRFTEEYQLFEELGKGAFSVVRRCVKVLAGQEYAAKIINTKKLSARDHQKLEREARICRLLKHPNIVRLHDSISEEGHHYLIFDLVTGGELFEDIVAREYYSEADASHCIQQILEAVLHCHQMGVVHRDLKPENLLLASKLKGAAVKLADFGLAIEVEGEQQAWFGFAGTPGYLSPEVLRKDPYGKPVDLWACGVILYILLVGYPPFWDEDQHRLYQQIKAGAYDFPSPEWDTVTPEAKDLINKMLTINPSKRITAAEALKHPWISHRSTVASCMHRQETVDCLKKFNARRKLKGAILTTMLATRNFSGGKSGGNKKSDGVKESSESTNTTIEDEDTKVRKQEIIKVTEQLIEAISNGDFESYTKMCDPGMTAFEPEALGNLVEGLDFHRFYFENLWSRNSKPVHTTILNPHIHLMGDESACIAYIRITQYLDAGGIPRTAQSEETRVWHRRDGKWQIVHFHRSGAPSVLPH
# UniProt Q13555: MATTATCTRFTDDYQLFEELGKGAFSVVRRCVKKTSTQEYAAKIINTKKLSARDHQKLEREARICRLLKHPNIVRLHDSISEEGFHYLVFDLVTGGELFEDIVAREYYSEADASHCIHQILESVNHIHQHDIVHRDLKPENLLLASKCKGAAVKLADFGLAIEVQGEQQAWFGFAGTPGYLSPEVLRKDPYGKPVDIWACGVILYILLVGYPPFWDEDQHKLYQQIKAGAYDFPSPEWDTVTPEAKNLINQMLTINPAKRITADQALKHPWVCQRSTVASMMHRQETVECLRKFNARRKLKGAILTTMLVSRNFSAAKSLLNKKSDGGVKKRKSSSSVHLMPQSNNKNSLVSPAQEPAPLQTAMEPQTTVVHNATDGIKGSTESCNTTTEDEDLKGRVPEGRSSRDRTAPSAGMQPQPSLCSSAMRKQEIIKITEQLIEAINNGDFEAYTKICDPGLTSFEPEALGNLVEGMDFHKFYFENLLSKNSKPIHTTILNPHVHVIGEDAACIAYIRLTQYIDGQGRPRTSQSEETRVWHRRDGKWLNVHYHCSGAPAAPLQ
# UniProt Q15131: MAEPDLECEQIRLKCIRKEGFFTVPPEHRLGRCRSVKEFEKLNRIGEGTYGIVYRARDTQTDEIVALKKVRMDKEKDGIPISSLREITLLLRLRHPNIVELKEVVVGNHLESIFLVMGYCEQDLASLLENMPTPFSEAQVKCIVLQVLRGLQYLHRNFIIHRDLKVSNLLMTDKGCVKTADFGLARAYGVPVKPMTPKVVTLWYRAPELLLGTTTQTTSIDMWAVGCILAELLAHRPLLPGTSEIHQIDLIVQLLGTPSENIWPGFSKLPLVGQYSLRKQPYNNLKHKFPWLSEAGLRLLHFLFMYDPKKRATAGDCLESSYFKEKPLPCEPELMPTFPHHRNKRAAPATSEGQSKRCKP
# UniProt Q00526: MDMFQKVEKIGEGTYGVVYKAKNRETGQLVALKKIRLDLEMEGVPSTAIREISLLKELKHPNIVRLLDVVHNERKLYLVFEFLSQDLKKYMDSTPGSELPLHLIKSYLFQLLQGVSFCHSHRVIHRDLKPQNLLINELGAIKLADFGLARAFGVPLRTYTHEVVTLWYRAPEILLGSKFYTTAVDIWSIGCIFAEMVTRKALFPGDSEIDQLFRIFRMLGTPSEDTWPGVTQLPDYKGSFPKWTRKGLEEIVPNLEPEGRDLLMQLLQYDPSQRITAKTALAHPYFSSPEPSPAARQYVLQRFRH
# UniProt P11802: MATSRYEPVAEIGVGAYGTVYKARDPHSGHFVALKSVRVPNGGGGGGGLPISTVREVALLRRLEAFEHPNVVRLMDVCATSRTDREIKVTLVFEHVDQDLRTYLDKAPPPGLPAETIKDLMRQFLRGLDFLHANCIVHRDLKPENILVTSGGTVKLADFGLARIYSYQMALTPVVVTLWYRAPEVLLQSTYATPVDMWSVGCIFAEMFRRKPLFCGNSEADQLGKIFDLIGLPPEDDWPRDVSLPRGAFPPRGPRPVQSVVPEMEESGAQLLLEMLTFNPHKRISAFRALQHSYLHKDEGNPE
# UniProt Q00535, whole entry, looked up: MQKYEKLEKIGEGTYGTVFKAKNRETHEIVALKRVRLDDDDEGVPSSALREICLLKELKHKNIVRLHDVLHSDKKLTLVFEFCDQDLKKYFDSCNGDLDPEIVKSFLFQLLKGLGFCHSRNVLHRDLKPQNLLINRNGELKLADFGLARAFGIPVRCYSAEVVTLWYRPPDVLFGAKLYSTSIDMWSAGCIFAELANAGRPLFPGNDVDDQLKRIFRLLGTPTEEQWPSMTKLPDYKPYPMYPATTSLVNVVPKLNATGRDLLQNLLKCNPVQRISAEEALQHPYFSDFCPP
# UniProt Q00534, whole entry: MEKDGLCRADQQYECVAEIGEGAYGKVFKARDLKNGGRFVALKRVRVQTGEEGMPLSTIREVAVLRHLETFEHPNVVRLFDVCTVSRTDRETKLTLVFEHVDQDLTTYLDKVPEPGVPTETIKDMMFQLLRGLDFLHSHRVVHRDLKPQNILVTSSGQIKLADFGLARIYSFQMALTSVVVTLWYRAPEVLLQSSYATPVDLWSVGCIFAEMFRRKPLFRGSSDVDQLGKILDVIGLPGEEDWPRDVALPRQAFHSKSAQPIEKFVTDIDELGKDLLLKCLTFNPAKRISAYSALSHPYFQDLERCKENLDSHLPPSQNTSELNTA
# Structures can show the parent of a compound that is named as a salt. Some of the results follow. The calls rarely recur for the same compound in another form.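 Kinases were expressed as nanoluciferase fusions in K562 cells and luminescence was read every 4 h between 2 and 18 h as percent of control, DMSO set to 100% and a positive control to 0%. A time point counts as decreased when the signal drops significantly (2 sigma). The hit call is the authors' own, does not follow from the count of time points alone, and its rule is not shown.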
# Legend:
# Experiment in all cases: kinase-Nluc reporter destabilization hit call (1 = scored as downregulated) (binary); higher = compound decreases kinase abundance
# Settings in all cases: K562; 2-18 h
# [1] = test system: BRAF_V600E
# [2] = target: BTK (UniProt Q06187)
# [3] = target: CAMK2A (UniProt Q9UQM7)
# [4] = target: CAMK2G (UniProt Q13555)
# [5] = target: CDK10 (UniProt Q15131)
# [6] = target: CDK2 (UniProt P24941)
# [7] = target: CDK3 (UniProt Q00526)
# [8] = target: CDK4 (UniProt P11802)
# [9] = target: CDK5 (UniProt Q00535)
# [10] = target: CDK6 (UniProt Q00534)
SMILES,kinase-Nluc reporter destabilization hit call [1],kinase-Nluc reporter destabilization hit call [2],kinase-Nluc reporter destabilization hit call [3],kinase-Nluc reporter destabilization hit call [4],kinase-Nluc reporter destabilization hit call [5],kinase-Nluc reporter destabilization hit call [6],kinase-Nluc reporter destabilization hit call [7],kinase-Nluc reporter destabilization hit call [8],kinase-Nluc reporter destabilization hit call [9],kinase-Nluc reporter destabilization hit call [10]
CNCCOc1ccccc1C(C)(C)Nc1nccn(-c2cc(C(=O)NC3CC3)ccc2C)c1=O [p38α inhibitor 2] (10 µM),inactive: 0,inactive: 0,inactive: 0,inactive: 0,inactive: 0,inactive: 0,inactive: 0,inactive: 0,inactive: 0,inactive: 0
O=C(Nc1nc2cccc(-c3ccc(CN4CCS(=O)(=O)CC4)cc3)n2n1)C1CC1 [Filgotinib] (2.5 µM),inactive: 0,inactive: 0,inactive: 0,inactive: 0,inactive: 0,inactive: 0,inactive: 0,inactive: 0,inactive: 0,inactive: 0
CC(C)(C)S(=O)(=O)c1ccc2nccc(Nc3n[nH]c4ccc(F)cc34)c2c1 (10 µM),inactive: 0,inactive: 0,inactive: 0,inactive: 0,inactive: 0,inactive: 0,inactive: 0,inactive: 0,inactive: 0,inactive: 0
Cn1cc(-c2ccc3nnc(Sc4ccc5nn(C)cc5c4)n3n2)cn1 [c-Met inhibitor 1] (10 µM),inactive: 0,inactive: 0,inactive: 0,inactive: 0,inactive: 0,inactive: 0,inactive: 0,inactive: 0,inactive: 0,inactive: 0
C=CCN(/C=C1/C(=O)O[C@H](COC)[C@@]2(C)C1=C(O)C(=O)C1=C2[C@H](OC(C)=O)C[C@]2(C)C(=O)CC[C@@H]12)CC=C [Sonolisib] (2.5 µM),inactive: 0,inactive: 0,inactive: 0,inactive: 0,inactive: 0,inactive: 0,inactive: 0,inactive: 0,inactive: 0,inactive: 0
CC(C)c1cnn2c(NCc3ccccc3)cc(NCCCCCCN)nc12 [BS-181 (hydrochloride)] (10 µM),inactive: 0,inactive: 0,inactive: 0,inactive: 0,inactive: 0,inactive: 0,inactive: 0,inactive: 0,inactive: 0,inactive: 0
C=CC(=O)N1CCN(c2nc(OC[C@@H]3CCCN3C)nc3c2CCN(c2cccc4cccc(C)c24)C3)C[C@@H]1CC#N (2.5 µM),inactive: 0,inactive: 0,inactive: 0,inactive: 0,inactive: 0,inactive: 0,inactive: 0,inactive: 0,inactive: 0,inactive: 0
Cc1cc(Nc2ncc(Cl)c(Nc3ccccc3S(=O)(=O)C(C)C)n2)c(OC(C)C)cc1C1CCN(CC(=O)NCCNc2cccc3c2C(=O)N(C2CCC(=O)NC2=O)C3=O)CC1 (stereo not given) (10 µM),inactive: 0,inactive: 0,inactive: 0,inactive: 0,inactive: 0,inactive: 0,inactive: 0,inactive: 0,inactive: 0,active: 1
C[C@@H]1O[C@@H](O[C@H]2[C@H](OC(=O)[C@]34CCC(C)(C)C[C@H]3C3=CC[C@@H]5[C@@]6(C)C[C@H](O)[C@H](O[C@@H]7O[C@H](CO)[C@@H](O)[C@H](O)[C@H]7O)C(CO)(CO)[C@@H]6CC[C@@]5(C)[C@]3(C)C[C@H]4O)OC[C@H](O)[C@@H]2O)[C@H](O)[C@H](O)[C@H]1O[C@@H]1OC[C@@H](O)[C@H](O[C@@H]2OC[C@](O)(CO)[C@H]2O)[C@H]1O [Platycodin D] (10 µM),inactive: 0,inactive: 0,inactive: 0,inactive: 0,inactive: 0,inactive: 0,inactive: 0,inactive: 0,inactive: 0,inactive: 0
CN(C)CCCNc1ccn2ncc(-c3ccc4c(c3)OCO4)c2n1 (10 µM),inactive: 0,inactive: 0,inactive: 0,inactive: 0,inactive: 0,inactive: 0,inactive: 0,inactive: 0,inactive: 0,inactive: 0
O=c1[nH]nc(Sc2ncc([N+](=O)[O-])s2)n1-c1ccc2c(c1)OCCO2 (2.5 µM),inactive: 0,inactive: 0,inactive: 0,inactive: 0,inactive: 0,inactive: 0,inactive: 0,inactive: 0,inactive: 0,inactive: 0
Cc1ncc(F)c(Nc2n[nH]c3c2CN(C(=O)N2C[C@@H](C)N(CC4CCOCC4)C[C@@H]2C)C3(C)C)n1 (10 µM),inactive: 0,inactive: 0,inactive: 0,inactive: 0,inactive: 0,inactive: 0,inactive: 0,inactive: 0,inactive: 0,inactive: 0
Cn1cc(-c2ccc3ncc(Cc4ccc5ncccc5c4)n3n2)cn1 (10 µM),inactive: 0,inactive: 0,inactive: 0,inactive: 0,inactive: 0,inactive: 0,inactive: 0,inactive: 0,inactive: 0,inactive: 0
Cc1c(Br)c(Br)c2c3c1nc(N1CCNCC1)n3CCC2 [SEL120-34A (monohydrochloride)] (2.5 µM),inactive: 0,inactive: 0,inactive: 0,inactive: 0,inactive: 0,inactive: 0,inactive: 0,inactive: 0,inactive: 0,inactive: 0
O=C1c2cccc(O)c2C(=O)c2c(O)cccc21 [Danthron] (10 µM),inactive: 0,inactive: 0,inactive: 0,inactive: 0,inactive: 0,inactive: 0,inactive: 0,inactive: 0,inactive: 0,inactive: 0
CCN1C(C)(C)CC(Oc2ccc(C(=O)Nc3ccc(NC(=O)Nc4cc(C(C)(C)C)on4)cc3)nc2)CC1(C)C (10 µM),inactive: 0,inactive: 0,inactive: 0,inactive: 0,inactive: 0,inactive: 0,inactive: 0,inactive: 0,inactive: 0,inactive: 0
O=C(CC(c1ccccc1)C(C(=O)O)C(=O)O)c1ccc(C(F)(F)F)cc1 (stereo not given) (10 µM),inactive: 0,inactive: 0,inactive: 0,inactive: 0,inactive: 0,inactive: 0,inactive: 0,inactive: 0,inactive: 0,inactive: 0
Cc1occ2c1C(=O)c1c(O)ccc(O)c1C2 (2.5 µM),inactive: 0,inactive: 0,inactive: 0,inactive: 0,inactive: 0,inactive: 0,inactive: 0,inactive: 0,inactive: 0,inactive: 0
COC(=O)c1cc2c(OC(C)C)cc(OC(C)C)cc2[nH]1 (2.5 µM),inactive: 0,inactive: 0,inactive: 0,inactive: 0,inactive: 0,inactive: 0,inactive: 0,inactive: 0,inactive: 0,inactive: 0
Cc1nc(Nc2ncc(C(=O)Nc3c(C)cccc3Cl)s2)cc(N2CCN(C(=O)CCCCCCC(=O)N[C@H](C(=O)N3C[C@H](O)C[C@H]3C(=O)NCc3ccc(-c4scnc4C)cc3)C(C)(C)C)CC2)n1 (2.5 µM),inactive: 0,active: 1,inactive: 0,inactive: 0,inactive: 0,inactive: 0,inactive: 0,inactive: 0,inactive: 0,inactive: 0

# Part of the list above in order of formula weight, descending.
SMILES,kinase-Nluc reporter destabilization hit call [1],kinase-Nluc reporter destabilization hit call [2],kinase-Nluc reporter destabilization hit call [3],kinase-Nluc reporter destabilization hit call [4],kinase-Nluc reporter destabilization hit call [5],kinase-Nluc reporter destabilization hit call [6],kinase-Nluc reporter destabilization hit call [7],kinase-Nluc reporter destabilization hit call [8],kinase-Nluc reporter destabilization hit call [9],kinase-Nluc reporter destabilization hit call [10]
CCN1C(C)(C)CC(Oc2ccc(C(=O)Nc3ccc(NC(=O)Nc4cc(C(C)(C)C)on4)cc3)nc2)CC1(C)C (10 µM),inactive: 0,inactive: 0,inactive: 0,inactive: 0,inactive: 0,inactive: 0,inactive: 0,inactive: 0,inactive: 0,inactive: 0
CNCCOc1ccccc1C(C)(C)Nc1nccn(-c2cc(C(=O)NC3CC3)ccc2C)c1=O [p38α inhibitor 2] (10 µM),inactive: 0,inactive: 0,inactive: 0,inactive: 0,inactive: 0,inactive: 0,inactive: 0,inactive: 0,inactive: 0,inactive: 0
COC(=O)c1cc2c(OC(C)C)cc(OC(C)C)cc2[nH]1 (2.5 µM),inactive: 0,inactive: 0,inactive: 0,inactive: 0,inactive: 0,inactive: 0,inactive: 0,inactive: 0,inactive: 0,inactive: 0
